In general, AC50 refers to the midpoint of the concentration-response curve, whichever way the signal moves.

These results are taken from PubChem BioAssay AID2685 (National Center for Advancing Translational Sciences (NCATS), 2010).

A short description of this assay: qHTS Assay for Lipid Storage Modulators in Drosophila S3 Cells.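 For cell number change: cells counted by Cell Tracker Red CMTPX staining in the red channel.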 The settings on record: BODIPY lipid droplet fluorescence, 18-24 h; for cell number change: measured here: cell count max response, cells fed with added oleic acid. The method in brief:
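Drosophila S3 cells got compounds at several concentrations plus oleic acid (400 uM solution). Laser-scanning cytometry with 488 nm excitation read lipid droplets at 500-530 nm and cells at 575-640 nm. Percent activity was relative to 20 uM Triacsin C.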
(Quantitative high-throughput screening tests each substance at several concentrations.)

[1] abbreviates: measured here: lipid fluorescence (Fed channel) AC50, cells fed with added oleic acid.
Setting [2] is: measured here: cell number channel AC50, cells fed with added oleic acid.

Molecules are shown by their SMILES. The list shows a part of the results. Further columns of the screen follow, without active or inactive calls. The list favours compounds with an active or inconclusive main result. The note in brackets gives the kind of curve behind each potency; many fits are weak.

`COC(=O)CSc1cccc2c1C(=O)CC2c1ccccc1` (stereo unspecified): the cell number change came to 27.9%. Further, the AC50 under setting [1] was 13 µM [rising, partial curve].
On to `CCCc1nc2sc3c(=O)[nH]cnc3c2c2c1CCCC2`, for which the AC50 under setting [1] was 6.51 µM [rising, partial curve, poor fit].
On to `CC(Oc1cccc([N+](=O)[O-])c1)C(=O)NCCC1=CCCCC1` (stereo unspecified), for which the cell number change was determined as 33.6%. Besides, under setting [2], the AC50 was 0.184 µM [rising, full curve, poor fit]. Under setting [1], the AC50 was 0.82 µM [rising, single point].
As to `CCCCN(C)C(=O)C(Cc1ccccc1)NS(=O)(=O)c1ccc2c(c1)c(=O)n(C)c(=O)n2C` (stereo unspecified), the cell number change was -32.3%. For the same compound, under setting [2], the AC50 is 29.1 µM [falling, single point]. The AC50 under setting [1] was 0.82 µM [rising, full curve, poor fit].
With `CC1CN(C(=O)c2ccccc2OCc2ccc(Cl)cc2Cl)CC(C)O1` (stereo unspecified), the AC50 under setting [1] was 0.82 µM [falling, full curve].
In the case of `O=C(O)C(c1ccccc1)N1C(=O)/C(=C\c2ccc(-c3ccc(Br)cc3)o2)SC1=S` (stereo unspecified), the cell number change was -5.56%.
Turning to `COc1cccc(C(=O)CN2CCC(NC(=O)NC3CCCCC3)CC2)c1`, the cell number change was determined as 8.98%.
Turning to `COc1ccc(-c2cccc(NS(=O)(=O)c3cccc([N+](=O)[O-])c3)c2)nn1`, the cell number change is -33.7%. In addition, the AC50 under setting [2] was 10.3 µM [falling, partial curve]. Also, the AC50 under setting [1] is 5.17 µM [falling, partial curve].
Turning to `CC(C)(C)C(=O)Nc1ccc(/C=C/C(=O)c2ccco2)cc1`, the cell number change is -31.8%. Besides, the AC50 under setting [2] was 23.1 µM [falling, single point]. Under setting [1], the AC50 is 4.61 µM [falling, partial curve].
Consider `Cc1ccc(-c2nn(-c3ccccc3)cc2/C=N/O)cc1`, for which the cell number change is -49.2%. The AC50 under setting [2] was 18.4 µM [falling, partial curve]. The AC50 under setting [1] is 18.4 µM [falling, partial curve, poor fit].
With `O=C(CSc1n[nH]c(=O)[nH]c1=O)c1ccc(Cl)cc1Cl`, the cell number change is -37.6%. For the same compound, under setting [2], the AC50 is 29.1 µM [falling, single point].
As to `Cc1ccc(CSCC(=O)N2CCN(c3ccc(F)cc3)CC2)cc1`, the cell number change is -19.9%. Besides, the AC50 under setting [1] is 0.116 µM [falling, full curve, poor fit].
In the case of `CC(C)Cn1c(SCC(=O)c2c(N)n(C)c(=O)n(C)c2=O)nc2ccccc21`, the cell number change came to 0.188%. In addition, the AC50 under setting [1] is 32.6 µM [falling, single point].
In the case of `COc1ccccc1C(=O)NNC(=S)NC(=O)c1cc(OC)c(OC)c(OC)c1`, the cell number change is -12.3%. Also, the half-maximal activity concentration (AC50) under setting [1] is 0.206 µM [rising, full curve, poor fit].
As to `CCn1c(SCC(=O)Nc2ccc3c(c2)oc2ccccc23)nnc1-c1ccc(N)cc1`, the cell number change was -88.3%. In addition, the AC50 under setting [2] was 16.4 µM [falling, partial curve].
